Data source: PubChem BioAssay AID1671195 (Yale University, 2021)
Shown is an unselected part of about 22,000 deposited reagents. Of all reagents, about 1,510 (6.9%) are marked active. 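Active includes knockdowns raising or lowering LDL uptake; positive z-scores mean more uptake, negative mean less.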 No sequences are given here.

Test: 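Knockdowns that increase or decrease uptake of fluorescent LDL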 (primary screen)
Cells: human Huh7 hepatoma cells
Reagents: siRNA pool against human genes, 18 nM
Time to read-out: about 2 to 2.5 days of knockdown, then 8 h LDL uptake
Conditions: DiI-labelled LDL at 30 µg/ml for 8 h, in lipoprotein-deficient serum medium
Read-out: 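Fluorescent LDL signal imaged in cells, scaled to the plate median, robust z-score for each replicate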
Direction: robust z-score: higher = more LDL uptake after knockdown
Rule for the call: 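a gene counts as active if at least two replicate z-scores exceed ±2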

gene knocked down	robust z-score, replicate 1	robust z-score, replicate 2	robust z-score, replicate 3	outcome
PPP2R5A	-0.761	-0.884	-1.32	inactive
IREB2	-0.333	0.718	0.251	inactive
LARS1	0.461	-0.242	-0.763	inactive
PIGG	0.0161	-0.379	-0.661	inactive
POLR3K	2.17	1.57	1.09	inactive
BUB1B	0.0535	-1.11	0.518	inactive
NXT2	-0.804	0.357	-1.33	inactive
RPP38-DT	1.16	0.58	0.687	inactive
GUCY2C	-0.106	1.67	1.3	inactive
STIM2	-0.727	0.0343	-0.351	inactive
SLC9A3	-0.0378	-0.373	0.245	inactive
GOSR2	1.3	1.46	1.68	inactive
LOC389427 (retired record)	-1.23	-1.06	-1.22	inactive
M1AP	-0.761	0.516	-0.027	inactive
LINC03025	0.736	0.394	0.223	inactive
PAFAH2	-0.277	-0.165	-0.0856	inactive
RABGAP1L	0.0916	-1.15	-1.24	inactive
ARHGEF12	-0.343	-0.619	-0.573	inactive

Next part (3 carried over from the part before).
gene knocked down	robust z-score, replicate 1	robust z-score, replicate 2	robust z-score, replicate 3	outcome
PAFAH2	-0.277	-0.165	-0.0856	inactive
RABGAP1L	0.0916	-1.15	-1.24	inactive
ARHGEF12	-0.343	-0.619	-0.573	inactive
PDE12	-0.857	-0.868	-0.8	inactive
PNLIPRP2	2.02	1.44	1.9	inactive
ZNF660	-1.86	-1.64	-1.11	inactive
RAD51D	-0.491	-1.21	-0.525	inactive
FOXRED2	-1.57	-1.85	-1.51	inactive
ZFYVE21	-0.735	-0.437	-0.582	inactive
SH2B3	1.07	-1.28	-0.0355	inactive
ST6GAL2	1.05	1.22	1.96	inactive
LOC392546 (retired record)	-0.489	-0.898	-0.883	inactive
LOC389117 (retired record)	-0.0398	-0.0406	0.462	inactive
